According to patent US7105533B2, “Fused heterobicyclo substituted phenyl metabotropic glutamate-5 modulators” (Merck & Co., Inc., priority 2002, dated 2006):
Where a name gives a salt, the structure may show the parent alone. Some results were stated once for a whole list of compounds, not compound by compound.

Sequences of proteins named here, by UniProt entry; tags and fusion partners are left off. Residues count along the entry.
UniProt P41594, 21-1180 isoform P41594-2 limits assumed: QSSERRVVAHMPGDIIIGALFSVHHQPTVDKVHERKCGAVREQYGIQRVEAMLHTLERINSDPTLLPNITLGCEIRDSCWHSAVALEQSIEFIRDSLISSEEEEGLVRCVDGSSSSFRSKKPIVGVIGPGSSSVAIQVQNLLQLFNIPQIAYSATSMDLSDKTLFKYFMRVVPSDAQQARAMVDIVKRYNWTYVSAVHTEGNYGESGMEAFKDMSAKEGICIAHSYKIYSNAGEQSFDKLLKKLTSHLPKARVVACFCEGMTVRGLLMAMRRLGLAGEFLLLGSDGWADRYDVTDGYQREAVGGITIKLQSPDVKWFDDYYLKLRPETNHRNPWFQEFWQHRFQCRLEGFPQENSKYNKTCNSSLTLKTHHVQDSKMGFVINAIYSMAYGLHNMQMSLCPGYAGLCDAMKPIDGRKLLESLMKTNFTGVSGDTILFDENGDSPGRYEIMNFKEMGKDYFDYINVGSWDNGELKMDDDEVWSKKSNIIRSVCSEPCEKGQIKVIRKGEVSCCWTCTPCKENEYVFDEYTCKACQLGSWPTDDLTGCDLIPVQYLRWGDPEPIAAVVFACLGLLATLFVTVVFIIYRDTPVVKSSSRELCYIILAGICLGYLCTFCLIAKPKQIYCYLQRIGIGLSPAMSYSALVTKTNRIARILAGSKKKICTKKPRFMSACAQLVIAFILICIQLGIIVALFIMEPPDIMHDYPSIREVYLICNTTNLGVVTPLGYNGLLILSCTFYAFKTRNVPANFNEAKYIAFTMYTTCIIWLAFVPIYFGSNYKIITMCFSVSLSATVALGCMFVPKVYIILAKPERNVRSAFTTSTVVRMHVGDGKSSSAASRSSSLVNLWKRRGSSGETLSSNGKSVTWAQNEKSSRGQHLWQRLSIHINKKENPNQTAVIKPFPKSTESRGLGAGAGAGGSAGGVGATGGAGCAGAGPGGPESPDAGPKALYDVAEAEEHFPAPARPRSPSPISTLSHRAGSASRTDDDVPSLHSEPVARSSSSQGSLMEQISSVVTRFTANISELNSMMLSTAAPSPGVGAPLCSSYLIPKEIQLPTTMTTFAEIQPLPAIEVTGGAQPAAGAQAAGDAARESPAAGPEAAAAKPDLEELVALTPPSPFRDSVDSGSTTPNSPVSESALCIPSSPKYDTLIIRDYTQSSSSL

Legend:
hmGluR5a receptor = target: T1, hmGluR5a receptor (Homo sapiens, UniProt P41594); assay: Calcium flux assay; assay type: cell-based; conditions: hmGluR5a/L38-20 mouse fibroblast Ltk- cells, fura-2, 10 μM glutamate (EC80); read-out: mGluR5 inhibitory activity, values in the calcium flux assay
T1 construct: expressed in transfected cells; host or cells: mouse fibroblast Ltk- cells (hmGluR5a/L38-20 cell line; LM5a cell line)

hmGluR5 = target: T2, hmGluR5 (Homo sapiens, UniProt P41594); assay: Phosphatidylinositol hydrolysis (PI) assay; assay type: cell-based; conditions: hmGluR5/L38-20 mouse fibroblast Ltk cells, [3H]-inositol, 10 μM glutamate; read-out: mGluR5 inhibitory activity, values in the PI assay
T2 construct: expressed in transfected cells; host or cells: mouse fibroblast Ltk- cells (hmGluR5a/L38-20 cell line; LM5a cell line)

IC50 (hmGluR5a receptor) [µM]	IC50 (hmGluR5) [µM]	Structure (SMILES)
< 5	< 100	COc1cc(-c2ncc3ccccn23)ccc1-c1ccccn1 [Example 1, 3-(3-methoxy-4-(pyridin-2-yl)phenyl)imidazo[1,5-a]pyridine hydrochloride]
< 5	< 100	COc1cc(-n2nc3ccccc3n2)ccc1-c1ccccn1 [Example 2, 2-(3-methoxy-4-(pyridin-2-yl)phenyl)-2H-1,2,3-benzotriazole hydrochloride]
< 5	< 100	COc1cc(-c2cn3ccccc3n2)ccc1C [Example 3, 2-(3-Methoxy-4-methylphenyl)imidazolo[1-2a]pyridine]
< 5	< 100	COc1cc(-c2cn3ccccc3n2)ccc1-c1ccccn1 [Example 4, 2-(3-methoxy-4-pyridin-2-ylphenyl)imidazo[1,2-a]pyridine]
< 5	< 100	COc1cc(-c2cn3c(n2)CCCC3)ccc1-c1ccccn1 [Example 5, 2-(3-methoxy-4-pyridin-2-ylphenyl)-5,6,7,8-tetrahydroimidazo[1,2-a]pyridine]
< 5	< 100	COc1cc(-c2cc3ccccn3c2)ccc1-c1ccccn1 [Example 6, 2-(3-methoxy-4-pyridin-2-ylphenyl)indolizine]
< 5	< 100	COc1cc(-n2cc3ccccc3n2)ccc1-c1ccccn1 [Example 7, 2-(3-methoxy-4-pyridin-2-ylphenyl)-2H-indazole]
< 5	< 100	COc1cc(-c2cc3ccccn3n2)ccc1-c1ccccn1 [Example 8, 2-(3-methoxy-4-pyridin-2-ylphenyl)pyrazolo[1,5-a]pyridine]
< 5	< 100	COc1cc(-c2nc3ccccn3n2)ccc1-c1ccccn1 [Example 9, 2-(3-methoxy-4-pyridin-2-ylphenyl)[1,2,4]triazolo[1,5-a]pyridine]
< 5	< 100	COc1cc(-c2cn3ccsc3n2)ccc1-c1ccccn1 [Example 10, 6-(3-methoxy-4-pyridin-2-ylphenyl)imidazo[2,1-b][1,3]thiazole]
< 5	< 100	COc1cc(-c2cn3c(n2)SCC3)ccc1-c1ccccn1 [Example 11, 6-(3-methoxy-4-pyridin-2-ylphenyl)-2,3-dihydroimidazo[2,1-b][1,3]thiazole]
< 5	< 100	COc1cc(-c2cn3c(C)csc3n2)ccc1-c1ccccn1 [Example 12, 6-(3-methoxy-4-pyridin-2-ylphenyl)-3-methylimidazo[2,1-b][1,3]thiazole]
< 5	< 100	COc1cc(-c2nc3sccn3c2C)ccc1-c1ccccn1 [Example 13, 6-(3-methoxy-4-pyridin-2-ylphenyl)-5-methylimidazo[2,1-b][1,3]thiazole]
< 5	< 100	COc1cc(-c2nc3sccn3c2Br)ccc1-c1ccccn1 [Example 14, 5-bromo-6-(3-methoxy-4-pyridin-2-ylphenyl)imidazo[2,1-b][1,3]thiazole]
< 5	< 100	COc1cc(-c2nc3sccn3c2-c2ccncc2)ccc1-c1ccccn1 [Example 15, 6-(3-methoxy-4-pyridin-2-ylphenyl)-5-pyridin-4-ylimidazo[2,1-b][1,3]thiazole]
< 5	< 100	COc1cc(-c2cn3ncsc3n2)ccc1-c1ccccn1 [Example 16, 6-(3-methoxy-4-pyridin-2-ylphenyl)imidazo[2,1-b][1,3,4]thiadiazole]
